Measured values from the supplement of paper PMC10849652.
This is one part of the list.

By UniProt entry, the sequences of proteins in these tests, tags left out. Where a name states a change or a piece, a line headed by the entry shows the natural chain unless it says otherwise.
UniProt Q9C0C2: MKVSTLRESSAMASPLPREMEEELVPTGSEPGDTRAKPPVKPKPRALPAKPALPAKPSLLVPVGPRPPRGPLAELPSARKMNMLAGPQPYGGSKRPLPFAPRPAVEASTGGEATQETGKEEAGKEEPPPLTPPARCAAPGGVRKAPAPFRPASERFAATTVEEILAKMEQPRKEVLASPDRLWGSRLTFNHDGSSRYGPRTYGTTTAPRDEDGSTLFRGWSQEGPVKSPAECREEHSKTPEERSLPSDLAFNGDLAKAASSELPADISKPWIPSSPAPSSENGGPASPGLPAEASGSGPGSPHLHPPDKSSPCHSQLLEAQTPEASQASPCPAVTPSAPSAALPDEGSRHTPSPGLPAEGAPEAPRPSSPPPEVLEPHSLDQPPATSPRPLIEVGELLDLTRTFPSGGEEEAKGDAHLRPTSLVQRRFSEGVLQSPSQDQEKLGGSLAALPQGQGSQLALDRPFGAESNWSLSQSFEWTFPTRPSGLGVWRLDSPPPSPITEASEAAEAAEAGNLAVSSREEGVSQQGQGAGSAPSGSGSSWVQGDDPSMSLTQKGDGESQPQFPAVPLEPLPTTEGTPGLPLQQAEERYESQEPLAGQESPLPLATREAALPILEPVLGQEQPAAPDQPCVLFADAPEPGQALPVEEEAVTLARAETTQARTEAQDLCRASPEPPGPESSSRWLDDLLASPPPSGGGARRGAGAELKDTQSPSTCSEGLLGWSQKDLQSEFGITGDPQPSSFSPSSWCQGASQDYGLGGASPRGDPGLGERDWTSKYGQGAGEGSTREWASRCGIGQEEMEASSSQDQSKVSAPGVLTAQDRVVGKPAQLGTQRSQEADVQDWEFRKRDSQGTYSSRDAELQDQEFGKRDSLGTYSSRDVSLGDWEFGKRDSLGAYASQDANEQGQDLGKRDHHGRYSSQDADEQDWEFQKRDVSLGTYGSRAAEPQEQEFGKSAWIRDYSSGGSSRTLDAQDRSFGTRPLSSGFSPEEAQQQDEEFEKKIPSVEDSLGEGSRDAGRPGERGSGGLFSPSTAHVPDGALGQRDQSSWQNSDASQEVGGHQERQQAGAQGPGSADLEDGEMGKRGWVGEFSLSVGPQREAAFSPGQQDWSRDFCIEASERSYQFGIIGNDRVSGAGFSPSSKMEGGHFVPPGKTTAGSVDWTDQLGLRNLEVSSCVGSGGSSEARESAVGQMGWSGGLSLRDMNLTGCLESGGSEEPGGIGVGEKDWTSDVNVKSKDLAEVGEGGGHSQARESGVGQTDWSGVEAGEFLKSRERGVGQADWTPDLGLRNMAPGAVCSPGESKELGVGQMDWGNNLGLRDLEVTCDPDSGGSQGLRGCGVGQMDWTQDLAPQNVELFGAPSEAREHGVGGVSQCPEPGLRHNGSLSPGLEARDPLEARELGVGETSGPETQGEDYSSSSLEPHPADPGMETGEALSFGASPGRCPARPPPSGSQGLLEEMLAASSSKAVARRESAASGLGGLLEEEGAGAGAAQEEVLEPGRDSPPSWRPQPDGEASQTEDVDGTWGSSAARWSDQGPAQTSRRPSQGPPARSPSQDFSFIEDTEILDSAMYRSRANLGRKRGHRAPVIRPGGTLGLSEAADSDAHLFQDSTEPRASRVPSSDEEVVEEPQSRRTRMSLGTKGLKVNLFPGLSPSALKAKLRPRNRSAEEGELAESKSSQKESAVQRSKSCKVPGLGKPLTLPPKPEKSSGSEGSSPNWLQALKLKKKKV
UniProt Q9H496: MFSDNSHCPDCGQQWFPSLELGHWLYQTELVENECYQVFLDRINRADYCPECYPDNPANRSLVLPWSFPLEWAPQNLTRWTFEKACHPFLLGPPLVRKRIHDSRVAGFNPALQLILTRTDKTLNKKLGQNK
UniProt Q9BSV6: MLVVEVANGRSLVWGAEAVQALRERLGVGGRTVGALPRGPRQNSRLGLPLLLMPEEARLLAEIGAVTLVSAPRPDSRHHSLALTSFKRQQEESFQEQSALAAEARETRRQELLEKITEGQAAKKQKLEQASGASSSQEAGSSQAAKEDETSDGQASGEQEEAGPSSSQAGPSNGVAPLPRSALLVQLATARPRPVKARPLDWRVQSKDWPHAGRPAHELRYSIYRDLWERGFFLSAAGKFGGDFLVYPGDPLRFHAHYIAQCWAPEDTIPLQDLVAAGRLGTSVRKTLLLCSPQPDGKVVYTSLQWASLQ
UniProt Q7L0Y3: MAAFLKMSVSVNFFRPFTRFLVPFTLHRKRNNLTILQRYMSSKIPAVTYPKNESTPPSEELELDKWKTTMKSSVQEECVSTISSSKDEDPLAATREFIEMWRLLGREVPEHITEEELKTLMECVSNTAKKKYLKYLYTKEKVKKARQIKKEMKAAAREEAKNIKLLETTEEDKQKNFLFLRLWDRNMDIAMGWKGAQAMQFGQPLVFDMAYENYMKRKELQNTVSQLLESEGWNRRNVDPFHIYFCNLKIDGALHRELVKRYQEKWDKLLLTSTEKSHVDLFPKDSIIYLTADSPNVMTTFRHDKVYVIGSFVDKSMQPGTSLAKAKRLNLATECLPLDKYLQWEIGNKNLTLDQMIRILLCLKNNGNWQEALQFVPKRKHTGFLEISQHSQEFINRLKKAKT
UniProt P13693: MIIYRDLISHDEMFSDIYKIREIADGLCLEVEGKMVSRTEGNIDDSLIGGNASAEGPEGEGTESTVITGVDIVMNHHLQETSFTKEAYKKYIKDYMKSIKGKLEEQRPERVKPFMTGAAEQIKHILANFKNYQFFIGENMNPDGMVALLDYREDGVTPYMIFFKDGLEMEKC
UniProt P36406: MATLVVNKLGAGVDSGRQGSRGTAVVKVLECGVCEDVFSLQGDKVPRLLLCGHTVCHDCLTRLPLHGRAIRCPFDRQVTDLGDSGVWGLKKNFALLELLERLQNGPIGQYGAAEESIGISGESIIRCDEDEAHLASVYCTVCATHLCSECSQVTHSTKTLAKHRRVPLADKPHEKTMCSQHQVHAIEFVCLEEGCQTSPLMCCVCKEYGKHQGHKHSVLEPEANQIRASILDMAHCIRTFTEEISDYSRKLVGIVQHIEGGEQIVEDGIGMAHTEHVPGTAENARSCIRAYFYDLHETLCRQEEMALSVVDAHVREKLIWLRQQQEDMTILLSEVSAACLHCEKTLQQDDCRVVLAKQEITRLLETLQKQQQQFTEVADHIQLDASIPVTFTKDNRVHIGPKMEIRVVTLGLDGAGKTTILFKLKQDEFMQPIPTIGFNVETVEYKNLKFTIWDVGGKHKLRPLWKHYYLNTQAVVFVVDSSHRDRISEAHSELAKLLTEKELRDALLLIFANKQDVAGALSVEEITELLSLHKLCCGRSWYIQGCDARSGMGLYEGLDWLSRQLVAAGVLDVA
UniProt Q9UL33, whole entry, looked up: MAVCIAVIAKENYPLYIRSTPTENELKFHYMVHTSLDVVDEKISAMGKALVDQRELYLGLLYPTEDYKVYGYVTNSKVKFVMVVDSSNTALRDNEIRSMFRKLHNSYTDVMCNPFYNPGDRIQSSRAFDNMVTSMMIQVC
UniProt Q02880: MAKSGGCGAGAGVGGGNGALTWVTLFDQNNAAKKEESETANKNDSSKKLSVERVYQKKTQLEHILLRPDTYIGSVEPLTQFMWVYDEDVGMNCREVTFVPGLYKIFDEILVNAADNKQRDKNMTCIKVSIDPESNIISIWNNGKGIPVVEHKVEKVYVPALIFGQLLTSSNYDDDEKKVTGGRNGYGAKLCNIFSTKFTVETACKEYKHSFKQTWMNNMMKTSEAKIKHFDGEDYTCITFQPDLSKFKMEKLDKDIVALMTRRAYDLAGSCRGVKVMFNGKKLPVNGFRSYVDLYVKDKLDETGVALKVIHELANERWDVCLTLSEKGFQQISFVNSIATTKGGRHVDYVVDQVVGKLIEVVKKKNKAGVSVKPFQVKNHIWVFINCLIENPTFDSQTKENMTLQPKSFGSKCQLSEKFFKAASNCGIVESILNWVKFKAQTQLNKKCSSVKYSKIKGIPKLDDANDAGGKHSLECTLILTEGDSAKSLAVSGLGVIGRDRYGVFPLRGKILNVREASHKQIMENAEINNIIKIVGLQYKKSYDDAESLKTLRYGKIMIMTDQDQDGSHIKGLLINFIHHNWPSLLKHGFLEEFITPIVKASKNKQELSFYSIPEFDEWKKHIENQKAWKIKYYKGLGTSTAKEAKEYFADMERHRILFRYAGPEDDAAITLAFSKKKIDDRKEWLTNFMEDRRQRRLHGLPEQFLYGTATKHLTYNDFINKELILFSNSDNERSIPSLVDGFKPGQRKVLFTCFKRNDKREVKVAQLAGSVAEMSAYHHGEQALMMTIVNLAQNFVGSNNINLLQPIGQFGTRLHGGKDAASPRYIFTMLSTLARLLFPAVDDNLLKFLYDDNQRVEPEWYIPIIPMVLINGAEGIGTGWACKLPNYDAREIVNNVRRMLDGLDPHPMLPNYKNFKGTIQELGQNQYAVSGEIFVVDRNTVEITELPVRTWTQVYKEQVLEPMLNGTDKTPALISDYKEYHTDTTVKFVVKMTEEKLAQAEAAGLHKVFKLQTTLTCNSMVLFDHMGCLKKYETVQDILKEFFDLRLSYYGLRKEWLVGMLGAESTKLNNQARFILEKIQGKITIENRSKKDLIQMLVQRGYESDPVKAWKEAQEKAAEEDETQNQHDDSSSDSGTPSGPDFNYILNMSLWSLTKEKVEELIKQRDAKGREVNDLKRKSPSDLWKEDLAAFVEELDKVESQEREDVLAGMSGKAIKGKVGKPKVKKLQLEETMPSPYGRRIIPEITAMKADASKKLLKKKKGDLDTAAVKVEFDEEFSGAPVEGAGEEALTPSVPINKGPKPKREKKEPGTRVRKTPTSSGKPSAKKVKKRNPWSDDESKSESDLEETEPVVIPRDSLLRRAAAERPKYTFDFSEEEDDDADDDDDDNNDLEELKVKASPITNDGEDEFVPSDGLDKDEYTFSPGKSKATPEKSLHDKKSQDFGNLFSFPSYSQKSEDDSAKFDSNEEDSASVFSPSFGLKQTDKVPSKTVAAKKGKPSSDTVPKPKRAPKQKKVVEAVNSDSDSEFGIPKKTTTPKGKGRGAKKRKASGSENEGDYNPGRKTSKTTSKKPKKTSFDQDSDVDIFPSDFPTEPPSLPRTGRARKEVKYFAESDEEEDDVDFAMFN
UniProt O14657: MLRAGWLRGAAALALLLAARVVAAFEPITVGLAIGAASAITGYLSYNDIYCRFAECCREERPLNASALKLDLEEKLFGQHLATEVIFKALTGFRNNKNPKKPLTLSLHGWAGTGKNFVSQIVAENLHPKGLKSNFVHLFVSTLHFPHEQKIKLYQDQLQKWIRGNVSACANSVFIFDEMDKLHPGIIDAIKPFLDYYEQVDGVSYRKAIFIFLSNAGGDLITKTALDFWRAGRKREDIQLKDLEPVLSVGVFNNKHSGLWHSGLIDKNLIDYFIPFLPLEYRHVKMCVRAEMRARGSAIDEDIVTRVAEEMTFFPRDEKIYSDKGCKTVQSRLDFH
UniProt P28908: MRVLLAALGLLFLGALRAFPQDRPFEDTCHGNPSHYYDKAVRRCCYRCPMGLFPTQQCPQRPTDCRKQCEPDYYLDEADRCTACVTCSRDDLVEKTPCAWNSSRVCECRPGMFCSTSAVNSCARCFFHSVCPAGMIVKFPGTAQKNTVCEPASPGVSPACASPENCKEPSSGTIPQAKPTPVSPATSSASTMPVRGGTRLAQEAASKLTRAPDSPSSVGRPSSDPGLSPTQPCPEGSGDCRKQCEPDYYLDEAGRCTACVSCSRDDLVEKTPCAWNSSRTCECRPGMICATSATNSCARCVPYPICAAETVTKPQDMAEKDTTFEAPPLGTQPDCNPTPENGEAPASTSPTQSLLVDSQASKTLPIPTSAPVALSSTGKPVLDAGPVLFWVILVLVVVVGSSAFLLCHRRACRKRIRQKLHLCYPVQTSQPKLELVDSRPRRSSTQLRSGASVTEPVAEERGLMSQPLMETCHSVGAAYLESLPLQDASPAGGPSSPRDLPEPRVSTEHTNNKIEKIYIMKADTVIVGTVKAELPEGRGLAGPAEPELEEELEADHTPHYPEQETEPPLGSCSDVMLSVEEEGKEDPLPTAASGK
UniProt Q15388, whole entry, looked up: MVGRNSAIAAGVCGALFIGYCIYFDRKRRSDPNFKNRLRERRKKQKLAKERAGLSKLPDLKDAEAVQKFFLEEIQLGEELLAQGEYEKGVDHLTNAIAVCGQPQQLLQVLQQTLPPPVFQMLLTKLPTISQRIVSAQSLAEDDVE
UniProt Q9NXH8: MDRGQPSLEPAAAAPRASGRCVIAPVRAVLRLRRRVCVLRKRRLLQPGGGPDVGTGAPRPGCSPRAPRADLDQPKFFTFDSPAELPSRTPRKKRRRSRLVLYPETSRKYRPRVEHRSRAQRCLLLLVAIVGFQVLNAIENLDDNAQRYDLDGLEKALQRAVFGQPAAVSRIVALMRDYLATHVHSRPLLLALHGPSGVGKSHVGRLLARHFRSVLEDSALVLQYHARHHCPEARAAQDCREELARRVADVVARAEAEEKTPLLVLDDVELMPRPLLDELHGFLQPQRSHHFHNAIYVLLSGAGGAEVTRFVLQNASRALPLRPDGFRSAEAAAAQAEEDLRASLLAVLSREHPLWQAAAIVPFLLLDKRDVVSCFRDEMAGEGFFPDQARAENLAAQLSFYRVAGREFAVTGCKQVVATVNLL

What was measured:
Experiment in all cases: log2 fold change, soluble protein after heating vs DMSO (PISA); higher = thermal stabilisation; K562 cells, 10 uM, 30 min; active = over 0.2 and 3.5 SD of the protein, either way, in both replicates (recomputed)
[1] = compound: C1=CC=C(C=C1)[C@H](COC2=CC3=C(C=C2)NC(=O)N3)NC(=O)C4=CC=CN(C4=O)CC5=CC(=C(C=C5)F)F
How it was run: (§1)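 Quantification of soluble protein used TMTpro 16plex LC-MS/MS, with channel sums equalised. Samples were the supernatant after 21,000xg for 90 min of pooled aliquots from K562 cells (2×10^6 cells/mL) treated with 10 μM compound for 30 min, heated for 3 min over 48°C-58°C, and extracted in PBS with 0.5% NP-40 at 4°C. Values, from duplicates, describe thermal stability against control samples on a log2 fold-change scale.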

[2] = compound: CC1=C(SC2=C1C(=N[C@H](C3=NN=C(N32)C)CC(=O)N)C4=CC=C(C=C4)Cl)C
How it was run: as §1

[3] = compound: CC1=C2C(=CC=C1)N=C(N(C2=O)C3=CC=CC=C3C)CN4C=NC5=C(N=CN=C54)N
How it was run: as §1

[4] = compound: Cc1sc2c(c1C)C(c1ccc(Cl)cc1)=N[C@@H](CC(=O)OC(C)(C)C)c1nnc(C)n1-2
How it was run: as §1

[5] = compound: c1ccc([C@@H]2C[C@H]2NC2CCNCC2)cc1
How it was run: as §1

Measured: log2 fold change

TRIM33 (UniProt Q9UPN9)
inactive: [1] -0.103 | [2] 0.135 | [3] 0.173 | [4] 0.142 | [5] 0.111

TOM1L1 (UniProt O75674)
inactive: [1] -0.019 | [2] 0.045 | [3] 0.034 | [4] 0.009 | [5] 0.023

TP53I3 (UniProt Q53FA7)
inactive: [1] 0.031 | [2] 0 | [3] -0.05 | [4] 0.017 | [5] 0.053

TRMT2A (UniProt Q8IZ69)
inactive: [1] -0.008 | [2] -0.042 | [3] -0.026 | [4] 0.1 | [5] 0.058

TRAFD1 (UniProt O14545)
inactive: [1] -0.004 | [2] 0.032 | [3] -0.032 | [4] 0.026 | [5] 0.001

TOMM70 (UniProt O94826)
inactive: [1] -0.012 | [2] 0.026 | [3] 0.055 | [4] -0.01 | [5] -0.029

TNKS1BP1 (UniProt Q9C0C2)
inactive: [1] 0.02 | [2] -0.009 | [3] 0.021 | [4] 0.002 | [5] 0.024

TRRAP (UniProt Q9Y4A5)
inactive: [1] 0.002 | [2] 0.029 | [3] 0.006 | [4] -0.036 | [5] 0.02

TRAPPC12 (UniProt Q8WVT3)
inactive: [1] -0.099 | [2] 0.014 | [3] 0.077 | [4] 0.046 | [5] -0.005

TRAM1 (UniProt Q15629)
inactive: [1] -0.167 | [2] -0.024 | [3] -0.008 | [4] 0.049 | [5] -0.018

TPD52L1 (UniProt Q16890)
inactive: [1] 0.094 | [2] -0.021 | [3] 0.021 | [4] -0.064 | [5] 0.014

TROAP (UniProt Q12815)
inactive: [1] 0.045

TOR1AIP2 (UniProt Q9H496)
inactive: [1] 0.03

TSEN34 (UniProt Q9BSV6)
inactive: [1] -0.034 | [2] 0.056 | [3] 0.19 | [4] 0.052 | [5] -0.066

TOMM40L (UniProt Q969M1)
inactive: [1] -0.013 | [2] 0.023 | [3] -0.013 | [4] -0.017 | [5] 0.05

TRMT10C (UniProt Q7L0Y3)
inactive: [1] -0.018 | [2] 0.029 | [3] 0.085 | [4] 0.005 | [5] -0.08

TNK2 isoform 3 (UniProt Q07912)
inactive: [1] -0.033

TPT1 (UniProt P13693)
inactive: [1] -0.048 | [2] 0.067 | [3] 0.022 | [4] -0.018 | [5] -0.027

TRIM44 (UniProt Q96DX7)
inactive: [1] -0.027 | [2] 0.008 | [3] -0.002 | [4] -0.006 | [5] 0.012

TPI1 (UniProt P60174)
inactive: [1] 0.001 | [2] 0.026 | [3] 0.027 | [4] -0.003 | [5] 0.008

TRIM23 (UniProt P36406)
inactive: [1] 0.023 | [2] 0.122 | [3] 0.049 | [4] -0.096 | [5] -0.05

TSEN2 (UniProt Q8NCE0)
inactive: [1] -0.05 | [2] 0 | [3] 0.044 | [4] -0.027 | [5] 0.03

TRUB1 (UniProt Q8WWH5)
inactive: [1] -0.014 | [2] 0.026 | [3] -0.016 | [4] -0.048 | [5] 0.009

TRMT11 (UniProt Q7Z4G4)
inactive: [1] 0.061 | [2] 0.07 | [3] 0.044 | [4] -0.031 | [5] 0

TREML2 (UniProt Q5T2D2)
inactive: [1] -0.043

TPM4 isoform 2 (UniProt P67936)
inactive: [1] -0.024 | [2] -0.048 | [3] -0.196 | [4] -0.028 | [5] 0.018

TRAPPC2 isoform 3 (UniProt P0DI81)
inactive: [1] -0.049 | [2] -0.055 | [3] 0.082 | [4] 0.015 | [5] 0.036

TRAPPC2L (UniProt Q9UL33)
inactive: [1] -0.014 | [2] -0.044 | [3] -0.058 | [4] -0.063 | [5] 0.038

TSC22D1 (UniProt Q15714)
inactive: [1] 0.011 | [2] 0.033 | [3] 0.016 | [4] -0.011 | [5] 0.099

TOP3B (UniProt O95985)
inactive: [1] -0.008 | [2] -0.08 | [3] -0.036 | [4] 0.074 | [5] -0.019

TOP2B (UniProt Q02880)
inactive: [1] 0.128 | [2] -0.266 | [3] -0.416 | [4] 0.202 | [5] 0.013

TNNC2 (UniProt P02585)
inactive: [1] 0.043 | [2] 0.004 | [3] 0.06 | [4] -0.624 | [5] 0.031

TOR1B (UniProt O14657)
inactive: [1] 0.013 | [2] -0.029 | [3] 0.017 | [4] -0.01 | [5] 0.003

TRPM7 (UniProt Q96QT4)
inactive: [1] -0.15 | [2] 0.006 | [3] 0.004 | [4] 0.047 | [5] 0.151

TOR3A (UniProt Q9H497)
inactive: [1] -0.022 | [2] -0.023 | [3] 0.038 | [4] -0.02 | [5] 0.001

TNPO3 (UniProt Q9Y5L0)
inactive: [1] -0.035 | [2] 0.063 | [3] 0.014 | [4] -0.022 | [5] -0.007

TP53RK (UniProt Q96S44)
inactive: [1] 0.023 | [2] -0.018 | [3] -0.006 | [4] -0.03 | [5] 0.017

TOM1 isoform 2 (UniProt O60784)
inactive: [1] 0.044 | [2] 0.001 | [3] -0.074 | [4] 0.046 | [5] 0.008

TSC22D2 (UniProt O75157)
inactive: [1] 0.015 | [2] 0.018 | [3] -0.032 | [4] -0.01 | [5] 0.071

TNFRSF8 (UniProt P28908)
inactive: [1] 0.012 | [2] 0.053 | [3] 0.036 | [4] -0.04 | [5] 0.021

TRIR (UniProt Q9BQ61)
inactive: [1] 0.032 | [2] 0.003 | [3] -0.049 | [4] -0.006 | [5] -0.012

TOMM20 (UniProt Q15388)
inactive: [1] 0.021 | [2] 0.025 | [3] 0.028 | [4] 0.006 | [5] 0.008

TRAF6 (UniProt Q9Y4K3)
inactive: [1] -0.027 | [2] 0.086 | [3] -0.032 | [4] -0.012 | [5] -0.029

TRMT13 (UniProt Q9NUP7)
inactive: [1] 0.003 | [2] 0.019 | [3] 0.084 | [4] 0.028 | [5] -0.023

TRIM11 (UniProt Q96F44)
inactive: [1] -0.096 | [2] -0.039 | [3] 0.051 | [4] 0.03 | [5] 0.004

TRNT1 (UniProt Q96Q11)
inactive: [1] -0.03 | [2] 0.052 | [3] 0.082 | [4] -0.019 | [5] 0.021

TOR2A (UniProt Q5JU69)
inactive: [1] -0.032 | [2] 0.02 | [3] 0.104 | [4] -0.134 | [5] -0.08

Quoted at random: 2 records from the list.
TRNT1 (UniProt Q96Q11)
inactive: [1] -0.03 | [2] 0.052 | [3] 0.082 | [4] -0.019 | [5] 0.021

TRMT13 (UniProt Q9NUP7)
inactive: [1] 0.003 | [2] 0.019 | [3] 0.084 | [4] 0.028 | [5] -0.023

(continued)

TRMT1 (UniProt Q9NXH9)
inactive: [1] -0.001 | [2] 0.004 | [3] 0.007 | [4] -0.03 | [5] 0.055

TRABD (UniProt Q9H4I3)
inactive: [1] 0.005 | [2] -0.034 | [3] -0.054 | [4] 0.027 | [5] -0.054

TP53BP2 isoform 3 (UniProt Q13625)
inactive: [1] 0.046 | [2] -0.042 | [3] 0.137 | [4] -0.09 | [5] -0.035

TPCN1 isoform 3 (UniProt Q9ULQ1)
inactive: [1] 0.137 | [2] 0.018 | [3] 0.095 | [4] 0.052 | [5] 0.073

TRIM25 (UniProt Q14258)
inactive: [1] 0.066 | [2] -0.142 | [3] -0.029 | [4] 0.088 | [5] -0.035

TRAPPC8 (UniProt Q9Y2L5)
inactive: [1] -0.01 | [2] 0.05 | [3] 0.046 | [4] 0.012 | [5] -0.018

TRAF2 (UniProt Q12933)
inactive: [1] -0.025 | [2] 0.028 | [3] -0.029 | [4] -0.023 | [5] 0.019

TOR4A (UniProt Q9NXH8)
inactive: [1] 0.018 | [2] -0.046 | [3] -0.081 | [4] 0.019 | [5] -0.051
